Experimental findings from PMC6531784, “Discovering metabolic disease gene interactions by correlated effects on cellular morphology” (Molecular Metabolism, 2019) are described below.

These are yes or no findings as the source states them, for the method shown. In cells and extracts the contact can be indirect. A result given as binding can be weak or reduced; the word gives no strength. Tags and fused reporters may be left off the sequences shown.

The target in this assay is T1, FLAG-perilipin (in HEK293 cells) (UniProt O60240).
T1 sequence: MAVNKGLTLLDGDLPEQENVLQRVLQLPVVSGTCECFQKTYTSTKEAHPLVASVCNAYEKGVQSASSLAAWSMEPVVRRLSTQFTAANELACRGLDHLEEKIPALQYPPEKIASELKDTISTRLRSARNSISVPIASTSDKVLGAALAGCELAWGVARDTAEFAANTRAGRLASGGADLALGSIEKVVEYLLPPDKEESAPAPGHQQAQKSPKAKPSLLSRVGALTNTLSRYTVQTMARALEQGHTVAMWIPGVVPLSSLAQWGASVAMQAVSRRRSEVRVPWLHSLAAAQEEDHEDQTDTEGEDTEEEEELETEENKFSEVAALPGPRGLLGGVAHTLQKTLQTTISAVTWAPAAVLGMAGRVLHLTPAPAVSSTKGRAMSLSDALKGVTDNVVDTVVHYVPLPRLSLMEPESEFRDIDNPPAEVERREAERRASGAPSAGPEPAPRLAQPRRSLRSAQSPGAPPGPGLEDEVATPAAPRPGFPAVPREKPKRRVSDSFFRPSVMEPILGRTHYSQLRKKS
As to the kind of experiment: co-IP; HEK293 cells co-transfected; lysis in 50 mM n-octyl-b-D-glucopyranoside, 50 mM Tris pH 6.8, 150 mM NaCl, 1 mM EDTA; anti-FLAG-agarose 2 h at 4 °C, elution with 3xFLAG peptide; blots for Myc, FLAG and calnexin.

Turning to “Myc-seipin mutant lacking the N terminus (ΔNT) (domain or fragment)”, the binding result was “binds”.

Consider “Myc-seipin mutant lacking the C terminus (ΔCT) (domain or fragment)”, for which the binding result is recorded as “binds”.
